Source: the supplement of paper PMC10849652
The other results are listed elsewhere or left out.

Protein sequences, listed by entry. Tags and fused reporters are not part of them. Lines headed by an entry give the natural chain unless they say otherwise; changes in a name come on top.
UniProt P35914: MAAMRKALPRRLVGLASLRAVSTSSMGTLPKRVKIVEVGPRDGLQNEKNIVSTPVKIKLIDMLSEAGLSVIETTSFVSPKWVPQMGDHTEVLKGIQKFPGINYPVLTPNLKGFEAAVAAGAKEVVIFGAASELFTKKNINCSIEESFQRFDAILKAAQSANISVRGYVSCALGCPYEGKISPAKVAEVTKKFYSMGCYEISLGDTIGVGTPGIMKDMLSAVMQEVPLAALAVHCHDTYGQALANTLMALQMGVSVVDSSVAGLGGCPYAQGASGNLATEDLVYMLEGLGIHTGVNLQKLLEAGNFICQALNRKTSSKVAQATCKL
UniProt O43719: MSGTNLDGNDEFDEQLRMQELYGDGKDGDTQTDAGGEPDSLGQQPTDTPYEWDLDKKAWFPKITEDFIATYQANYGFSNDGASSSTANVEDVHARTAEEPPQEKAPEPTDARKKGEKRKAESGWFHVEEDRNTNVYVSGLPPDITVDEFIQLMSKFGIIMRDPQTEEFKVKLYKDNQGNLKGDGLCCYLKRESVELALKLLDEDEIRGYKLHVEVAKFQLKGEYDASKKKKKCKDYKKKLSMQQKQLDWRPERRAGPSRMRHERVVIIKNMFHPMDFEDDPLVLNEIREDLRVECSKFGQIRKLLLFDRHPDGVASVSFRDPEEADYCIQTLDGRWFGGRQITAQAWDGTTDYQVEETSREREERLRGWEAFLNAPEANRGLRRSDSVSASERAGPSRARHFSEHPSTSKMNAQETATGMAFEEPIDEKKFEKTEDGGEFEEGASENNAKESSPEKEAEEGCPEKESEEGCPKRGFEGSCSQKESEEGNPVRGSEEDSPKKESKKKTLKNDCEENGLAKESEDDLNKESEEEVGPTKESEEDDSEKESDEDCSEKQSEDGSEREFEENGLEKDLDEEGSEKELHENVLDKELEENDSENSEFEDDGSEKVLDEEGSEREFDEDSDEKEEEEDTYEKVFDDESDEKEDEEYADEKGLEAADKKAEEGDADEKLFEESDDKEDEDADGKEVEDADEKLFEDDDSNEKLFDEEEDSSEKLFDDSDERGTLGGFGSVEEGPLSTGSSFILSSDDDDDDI
UniProt Q53T59: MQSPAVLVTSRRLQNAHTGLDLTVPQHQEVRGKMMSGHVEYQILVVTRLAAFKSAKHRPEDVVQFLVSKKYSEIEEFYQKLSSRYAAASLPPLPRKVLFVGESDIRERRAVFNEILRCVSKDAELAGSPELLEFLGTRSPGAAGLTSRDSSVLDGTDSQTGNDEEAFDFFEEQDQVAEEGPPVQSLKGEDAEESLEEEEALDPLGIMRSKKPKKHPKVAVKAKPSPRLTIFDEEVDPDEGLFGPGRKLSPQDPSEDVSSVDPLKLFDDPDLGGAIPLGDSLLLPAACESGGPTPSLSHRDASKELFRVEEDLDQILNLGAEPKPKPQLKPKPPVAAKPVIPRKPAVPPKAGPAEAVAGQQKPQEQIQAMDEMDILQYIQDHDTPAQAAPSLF
UniProt Q9BTY7: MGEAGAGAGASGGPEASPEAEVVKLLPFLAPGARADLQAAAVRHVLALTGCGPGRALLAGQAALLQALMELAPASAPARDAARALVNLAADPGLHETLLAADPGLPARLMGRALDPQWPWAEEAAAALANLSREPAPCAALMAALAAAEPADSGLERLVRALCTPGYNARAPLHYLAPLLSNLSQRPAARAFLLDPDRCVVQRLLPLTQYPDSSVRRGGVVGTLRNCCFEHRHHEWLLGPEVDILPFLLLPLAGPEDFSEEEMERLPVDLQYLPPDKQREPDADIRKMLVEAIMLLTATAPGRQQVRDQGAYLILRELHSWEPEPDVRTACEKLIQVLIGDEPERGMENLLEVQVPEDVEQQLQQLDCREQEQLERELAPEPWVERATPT
UniProt P52272: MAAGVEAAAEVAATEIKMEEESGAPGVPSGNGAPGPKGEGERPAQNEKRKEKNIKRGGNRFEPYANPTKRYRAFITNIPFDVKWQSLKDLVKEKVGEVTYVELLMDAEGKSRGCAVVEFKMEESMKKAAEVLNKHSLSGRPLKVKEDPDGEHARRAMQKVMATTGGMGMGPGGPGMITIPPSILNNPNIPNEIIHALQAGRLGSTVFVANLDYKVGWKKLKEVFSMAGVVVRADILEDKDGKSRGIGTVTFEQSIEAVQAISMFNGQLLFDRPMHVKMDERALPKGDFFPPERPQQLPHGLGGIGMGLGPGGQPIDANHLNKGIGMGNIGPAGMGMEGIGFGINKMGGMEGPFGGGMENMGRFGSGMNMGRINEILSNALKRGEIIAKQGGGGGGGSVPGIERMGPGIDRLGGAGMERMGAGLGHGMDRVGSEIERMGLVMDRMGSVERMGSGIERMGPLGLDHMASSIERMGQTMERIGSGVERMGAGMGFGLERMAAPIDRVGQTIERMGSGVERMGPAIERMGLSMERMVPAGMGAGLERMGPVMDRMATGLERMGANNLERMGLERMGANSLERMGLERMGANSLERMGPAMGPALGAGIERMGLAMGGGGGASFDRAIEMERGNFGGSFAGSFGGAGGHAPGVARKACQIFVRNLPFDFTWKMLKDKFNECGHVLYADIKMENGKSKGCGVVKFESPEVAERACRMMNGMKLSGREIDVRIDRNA
UniProt P00492: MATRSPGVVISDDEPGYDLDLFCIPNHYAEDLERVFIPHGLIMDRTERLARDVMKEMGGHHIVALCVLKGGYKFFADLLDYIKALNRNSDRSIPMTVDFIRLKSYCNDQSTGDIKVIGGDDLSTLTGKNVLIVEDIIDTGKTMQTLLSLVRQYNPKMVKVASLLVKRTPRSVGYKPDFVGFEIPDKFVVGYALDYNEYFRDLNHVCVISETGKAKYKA
UniProt Q2TB90: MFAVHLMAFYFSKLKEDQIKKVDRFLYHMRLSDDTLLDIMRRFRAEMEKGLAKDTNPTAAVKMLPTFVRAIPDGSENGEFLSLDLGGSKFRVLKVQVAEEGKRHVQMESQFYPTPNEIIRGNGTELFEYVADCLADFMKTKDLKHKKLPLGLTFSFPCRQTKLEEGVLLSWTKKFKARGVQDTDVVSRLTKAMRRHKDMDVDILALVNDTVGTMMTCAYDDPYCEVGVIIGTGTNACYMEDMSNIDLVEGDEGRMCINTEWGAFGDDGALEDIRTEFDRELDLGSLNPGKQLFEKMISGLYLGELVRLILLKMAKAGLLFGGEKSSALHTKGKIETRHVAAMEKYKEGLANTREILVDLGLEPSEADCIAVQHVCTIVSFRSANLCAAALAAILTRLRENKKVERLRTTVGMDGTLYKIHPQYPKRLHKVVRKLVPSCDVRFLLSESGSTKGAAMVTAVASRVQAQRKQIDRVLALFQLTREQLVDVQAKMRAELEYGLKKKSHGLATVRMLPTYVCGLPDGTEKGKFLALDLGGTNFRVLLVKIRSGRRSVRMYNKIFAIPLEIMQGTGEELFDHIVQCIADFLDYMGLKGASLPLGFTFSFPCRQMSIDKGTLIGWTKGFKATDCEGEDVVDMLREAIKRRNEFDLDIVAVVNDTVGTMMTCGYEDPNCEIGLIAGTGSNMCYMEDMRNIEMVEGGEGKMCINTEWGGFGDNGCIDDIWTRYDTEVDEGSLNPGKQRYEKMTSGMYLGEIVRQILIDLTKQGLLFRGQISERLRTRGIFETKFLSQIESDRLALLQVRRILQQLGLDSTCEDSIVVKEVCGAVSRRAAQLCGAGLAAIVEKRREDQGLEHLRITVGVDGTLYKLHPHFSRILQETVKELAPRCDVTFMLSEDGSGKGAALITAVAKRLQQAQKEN
UniProt Q3SXM5: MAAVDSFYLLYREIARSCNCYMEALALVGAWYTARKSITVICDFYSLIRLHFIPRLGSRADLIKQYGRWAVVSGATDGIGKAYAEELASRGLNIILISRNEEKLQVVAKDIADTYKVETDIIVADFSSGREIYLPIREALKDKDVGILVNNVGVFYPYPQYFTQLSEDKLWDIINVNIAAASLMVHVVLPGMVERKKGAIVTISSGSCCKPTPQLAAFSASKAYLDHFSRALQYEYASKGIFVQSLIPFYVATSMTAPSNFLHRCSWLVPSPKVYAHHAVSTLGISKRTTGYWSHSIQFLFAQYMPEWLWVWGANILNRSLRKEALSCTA
UniProt Q53GQ0: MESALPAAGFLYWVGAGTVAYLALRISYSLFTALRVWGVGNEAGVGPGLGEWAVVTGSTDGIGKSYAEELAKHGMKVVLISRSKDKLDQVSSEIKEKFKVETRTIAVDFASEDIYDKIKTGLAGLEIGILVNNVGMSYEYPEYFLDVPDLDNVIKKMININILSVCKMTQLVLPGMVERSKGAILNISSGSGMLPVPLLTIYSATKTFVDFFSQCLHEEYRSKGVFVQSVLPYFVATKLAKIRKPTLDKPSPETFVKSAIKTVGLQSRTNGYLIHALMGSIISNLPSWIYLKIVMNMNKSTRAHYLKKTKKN
UniProt O43464: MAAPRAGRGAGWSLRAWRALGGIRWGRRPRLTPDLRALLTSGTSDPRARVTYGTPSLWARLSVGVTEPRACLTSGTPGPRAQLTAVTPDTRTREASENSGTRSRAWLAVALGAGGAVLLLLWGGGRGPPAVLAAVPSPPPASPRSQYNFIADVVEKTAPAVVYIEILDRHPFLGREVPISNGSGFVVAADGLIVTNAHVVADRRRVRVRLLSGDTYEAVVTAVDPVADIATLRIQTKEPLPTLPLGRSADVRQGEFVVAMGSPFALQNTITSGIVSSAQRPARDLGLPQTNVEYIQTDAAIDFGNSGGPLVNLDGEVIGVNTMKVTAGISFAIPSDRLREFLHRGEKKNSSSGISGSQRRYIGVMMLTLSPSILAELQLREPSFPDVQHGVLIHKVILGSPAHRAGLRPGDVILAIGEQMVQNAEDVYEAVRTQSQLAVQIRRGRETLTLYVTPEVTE
UniProt Q9UMF0: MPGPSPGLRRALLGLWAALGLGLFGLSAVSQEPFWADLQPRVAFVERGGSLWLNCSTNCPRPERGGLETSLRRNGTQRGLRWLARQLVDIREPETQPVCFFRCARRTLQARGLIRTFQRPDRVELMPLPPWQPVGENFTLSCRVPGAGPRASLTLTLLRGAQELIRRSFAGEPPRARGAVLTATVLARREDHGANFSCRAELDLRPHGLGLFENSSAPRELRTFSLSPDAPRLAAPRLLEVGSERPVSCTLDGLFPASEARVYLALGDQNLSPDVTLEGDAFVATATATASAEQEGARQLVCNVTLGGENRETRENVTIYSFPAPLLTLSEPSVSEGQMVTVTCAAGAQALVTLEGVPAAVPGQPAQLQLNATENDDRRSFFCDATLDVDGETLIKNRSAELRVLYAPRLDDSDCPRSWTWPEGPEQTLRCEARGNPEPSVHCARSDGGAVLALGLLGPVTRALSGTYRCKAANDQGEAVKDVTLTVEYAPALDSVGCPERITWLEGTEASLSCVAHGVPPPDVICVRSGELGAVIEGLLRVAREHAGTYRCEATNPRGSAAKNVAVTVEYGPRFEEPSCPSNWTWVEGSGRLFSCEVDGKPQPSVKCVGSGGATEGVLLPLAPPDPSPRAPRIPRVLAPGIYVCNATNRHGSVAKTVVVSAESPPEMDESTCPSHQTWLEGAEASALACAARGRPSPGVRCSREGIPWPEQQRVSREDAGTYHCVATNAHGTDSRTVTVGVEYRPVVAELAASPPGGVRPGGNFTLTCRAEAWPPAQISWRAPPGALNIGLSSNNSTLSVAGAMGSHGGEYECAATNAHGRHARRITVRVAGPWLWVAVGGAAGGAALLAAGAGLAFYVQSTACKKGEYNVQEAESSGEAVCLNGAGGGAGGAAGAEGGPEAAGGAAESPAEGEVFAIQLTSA
UniProt Q58FG1, whole entry, looked up: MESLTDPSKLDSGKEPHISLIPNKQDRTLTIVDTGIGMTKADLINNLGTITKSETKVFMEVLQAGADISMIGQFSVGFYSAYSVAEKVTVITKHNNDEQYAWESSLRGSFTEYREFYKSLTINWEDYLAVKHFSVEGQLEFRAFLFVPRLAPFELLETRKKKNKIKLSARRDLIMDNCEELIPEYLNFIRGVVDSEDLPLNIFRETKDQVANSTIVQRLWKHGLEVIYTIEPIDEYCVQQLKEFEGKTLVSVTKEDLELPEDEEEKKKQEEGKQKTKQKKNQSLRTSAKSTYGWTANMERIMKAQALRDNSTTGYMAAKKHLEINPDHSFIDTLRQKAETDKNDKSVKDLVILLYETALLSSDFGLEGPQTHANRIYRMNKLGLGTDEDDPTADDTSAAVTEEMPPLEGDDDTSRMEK
UniProt Q9NP66: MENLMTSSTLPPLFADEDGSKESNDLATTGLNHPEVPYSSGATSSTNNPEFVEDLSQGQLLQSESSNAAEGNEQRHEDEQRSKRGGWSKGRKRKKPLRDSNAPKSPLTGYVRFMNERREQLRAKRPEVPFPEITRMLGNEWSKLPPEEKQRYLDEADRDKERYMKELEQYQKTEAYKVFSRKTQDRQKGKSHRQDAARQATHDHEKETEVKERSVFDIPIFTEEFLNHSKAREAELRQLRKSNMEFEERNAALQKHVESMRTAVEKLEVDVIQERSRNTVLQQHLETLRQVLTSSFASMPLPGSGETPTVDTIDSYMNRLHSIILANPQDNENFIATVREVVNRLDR

Legend:
Assay in all cases: log2 fold change, soluble protein after heating vs DMSO (PISA); higher = thermal stabilisation; K562 cells, 10 uM, 30 min; active = over 0.2 and 3.5 SD of the protein, either way, in both replicates (recomputed)
erlotinib = compound: C#Cc1cccc(Nc2ncnc3cc(OCCOC)c(OCCOC)cc23)c1 [erlotinib]
In short: (§1)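 For each measurement, 10 μM compound was applied for 30 min to K562 cells at 2×10^6 cells/mL. Aliquots were heated for 3 min across 48°C-58°C, pooled, and extracted in PBS with 0.5% NP-40 at 4°C; the supernatant after 21,000xg for 90 min was soluble protein. This was quantified by TMTpro 16plex LC-MS/MS with channel sums equalised, and thermal stability was reported relative to control samples from duplicates, on a log2 fold-change scale.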

[1] = compound: C/C(=N\NC(=O)C1=CC(=CC=C1)S(=O)(=O)N2CCOCC2)/C3=C(C=CC(=C3)Cl)O
In short: as §1

[2] = compound: C1=CC(=C(C=C1Cl)C2=NC3=NC=CN=C3C(=N2)NC4=CC=NC=C4)F
In short: as §1

[3] = compound: C1=CC(=CC=C1C2=NC3=C(N2)C=C(C=C3)C(=O)N)OC4=CC=C(C=C4)Cl
In short: as §1

[4] = compound: C1=CC2=C(C=CC(=C2)/C=C\3/C(=O)NC(=NCC4=CC=CS4)S3)N=C1
In short: as §1

[5] = compound: C1=CC2=NC=CN=C2C=C1/C=C/3\C(=O)NC(=O)S3
In short: as §1

[6] = compound: C1=CC=C(C=C1)C2=NC(=C(N2)C3=CC=NC=C3)C4=CC(=C(C=C4)Cl)O
In short: as §1

[7] = compound: C1=CC=C2C(=C1)C3=NNC4=CC=CC(=C43)C2=O
In short: as §1

[8] = compound: C1CCN(C1)C(=O)NC2=CC=CC(=C2)NC3=NC=C(C(=N3)NCCC4=CN=CN4)Br
In short: as §1

[9] = compound: C1CN(CCC1(CC2=CC=C(C=C2)Cl)N)C3=NC=NC4=C3C=CN4
In short: as §1

Target | log2 fold change (erlotinib) | log2 fold change [1] | log2 fold change [2] | log2 fold change [3] | log2 fold change [4] | log2 fold change [5] | log2 fold change [6] | log2 fold change [7] | log2 fold change [8] | log2 fold change [9]
HMGCL (UniProt P35914) | inactive: -0.02 | inactive: -0.065 | inactive: 0.047 | inactive: 0.005 | inactive: 0.026 | inactive: -0.046 | inactive: 0.071 | inactive: 0.027 | inactive: -0.056 | inactive: 0.053
HSP90B1 (UniProt P14625) | inactive: -0.026 | inactive: -0.025 | inactive: 0.018 | inactive: -0.041 | inactive: -0.013 | inactive: -0.006 | inactive: -0.012 | inactive: 0.018 | inactive: 0.024 | inactive: 0.02
HSP90AA1 isoform 2 (UniProt P07900) | inactive: -0.013 | inactive: 0.037 | inactive: 0.044 | inactive: -0.002 | inactive: -0.031 | inactive: 0.004 | inactive: 0.008 | inactive: 0.063 | inactive: 0.026 | inactive: 0.007
HTATSF1 (UniProt O43719) | inactive: 0.07 | inactive: 0.109 | inactive: 0.016 | inactive: -0.042 | inactive: 0.144 | inactive: 0.043 | inactive: -0.043 | inactive: -0.003 | inactive: -0.06 | inactive: -0.037
HK2 (UniProt P52789) | inactive: -0.068 | inactive: 0.037 | inactive: 0.051 | inactive: 0 | inactive: 0.028 | inactive: -0.015 | inactive: 0.005 | inactive: -0.017 | inactive: 0.009 | inactive: 0.023
HNRNPC isoform 2 (UniProt P07910) | inactive: 0.093 | inactive: -0.349 | inactive: -0.682 | inactive: 0.204 | inactive: 0.025 | inactive: 0.188 | inactive: -0.172 | inactive: -0.164 | inactive: 0.087 | inactive: -0.385
HSPA1A (UniProt P0DMV8) | inactive: -0.025 | inactive: -0.071 | inactive: -0.007 | inactive: 0.009 | inactive: -0.096 | inactive: 0.001 | inactive: -0.002 | inactive: 0.026 | inactive: 0.041 | inactive: 0.011
HP1BP3 (UniProt Q5SSJ5) | inactive: 0.071 | inactive: -0.035 | inactive: -0.04 | inactive: 0.028 | inactive: 0.069 | inactive: 0.064 | inactive: -0.013 | inactive: -0.044 | inactive: 0.027 | inactive: -0.155
HS1BP3 (UniProt Q53T59) | inactive: 0.008 | inactive: 0.042 | inactive: 0 | inactive: -0.073 | inactive: 0.147 | inactive: -0.008 | inactive: -0.032 | inactive: -0.03 | – | –
HGH1 (UniProt Q9BTY7) | inactive: -0.058 | inactive: -0.075 | inactive: -0.191 | inactive: 0.146 | inactive: 0.001 | inactive: 0.093 | inactive: -0.02 | inactive: 0 | inactive: -0.06 | inactive: -0.124
HHEX (UniProt Q03014) | inactive: -0.043 | inactive: -0.206 | inactive: 0.069 | inactive: 0.044 | inactive: 0.008 | inactive: -0.022 | inactive: -0.044 | inactive: 0.037 | inactive: -0.004 | inactive: 0.022
HIBADH (UniProt P31937) | inactive: -0.038 | inactive: 0.05 | inactive: -0.034 | inactive: 0.016 | inactive: 0.006 | inactive: 0.013 | inactive: 0.03 | inactive: -0.011 | inactive: -0.023 | inactive: 0.042
HIBCH (UniProt Q6NVY1) | inactive: 0.003 | inactive: 0.101 | inactive: 0.072 | inactive: -0.021 | inactive: 0.054 | inactive: 0.014 | inactive: 0.06 | inactive: 0.015 | inactive: 0.015 | inactive: 0.002
HNRNPH3 (UniProt P31942) | inactive: 0.061 | inactive: 0.079 | inactive: -0.334 | inactive: 0.134 | inactive: -0.16 | inactive: 0.064 | inactive: 0.061 | inactive: -0.065 | inactive: -0.042 | inactive: -0.19
HNRNPM (UniProt P52272) | inactive: 0.042 | inactive: -0.044 | inactive: -0.287 | inactive: 0.113 | inactive: 0.007 | inactive: 0.107 | inactive: -0.028 | inactive: 0.037 | inactive: 0 | inactive: -0.184
HMGN2 (UniProt P05204) | inactive: -0.02 | inactive: -0.01 | inactive: -0.255 | inactive: 0.034 | inactive: -0.125 | inactive: -0.039 | inactive: -0.052 | inactive: 0.059 | inactive: 0.011 | inactive: 0.019
HPRT1 (UniProt P00492) | inactive: -0.003 | inactive: 0.016 | inactive: 0.057 | inactive: 0.07 | inactive: -0.057 | inactive: 0.037 | inactive: 0.022 | inactive: -0.037 | inactive: 0.021 | inactive: 0.076
HMGN5 (UniProt Q5JSK9) | inactive: 0.202 | inactive: -0.257 | inactive: -0.071 | inactive: 0.058 | inactive: 0.299 | inactive: 0.067 | inactive: -0.365 | inactive: -0.15 | inactive: 0.02 | inactive: 0.038
HKDC1 (UniProt Q2TB90) | inactive: -0.011 | inactive: 0.065 | inactive: 0.029 | inactive: 0.011 | inactive: 0.02 | inactive: 0.066 | inactive: -0.042 | inactive: 0.01 | inactive: 0.019 | inactive: 0.024
HNRNPD (UniProt Q14103) | inactive: -0.102 | inactive: -0.029 | inactive: -0.251 | inactive: -0.035 | inactive: -0.097 | inactive: 0.003 | inactive: -0.05 | inactive: 0.069 | inactive: 0.075 | inactive: -0.086
HSDL1 (UniProt Q3SXM5) | inactive: -0.012 | inactive: 0.064 | inactive: 0.049 | inactive: -0.034 | inactive: 0.032 | inactive: 0.027 | inactive: -0.007 | inactive: -0.027 | inactive: -0.034 | inactive: 0.034
ICAM2 (UniProt P13598) | inactive: -0.043 | inactive: 0.052 | inactive: -0.01 | inactive: 0.016 | inactive: 0.009 | inactive: 0.015 | inactive: 0.07 | inactive: -0.095 | inactive: -0.127 | inactive: -0.019
HSD17B12 (UniProt Q53GQ0) | inactive: 0.004 | inactive: 0.067 | inactive: 0.02 | active: 0.346 | inactive: 0.025 | inactive: -0.012 | inactive: 0.027 | inactive: 0.064 | inactive: -0.028 | inactive: 0.124
HLCS (UniProt P50747) | inactive: -0.008 | inactive: 0.079 | inactive: 0.024 | inactive: 0.004 | inactive: 0.008 | inactive: 0.015 | inactive: -0.023 | inactive: 0 | inactive: -0.049 | inactive: 0.016
HTRA2 (UniProt O43464) | inactive: 0.078 | inactive: -0.006 | inactive: -0.018 | inactive: 0 | inactive: 0.03 | inactive: 0.044 | inactive: -0.018 | inactive: 0.013 | inactive: -0.008 | inactive: 0.03
ICAM5 (UniProt Q9UMF0) | inactive: 0.087 | inactive: 0.046 | inactive: -0.043 | inactive: -0.079 | inactive: 0.279 | inactive: -0.133 | inactive: -0.1 | inactive: 0.122 | inactive: -0.091 | inactive: 0.188
HSP90AA4P (UniProt Q58FG1) | inactive: 0.224 | inactive: -0.117 | inactive: -0.053 | inactive: 0.028 | inactive: 0.23 | inactive: 0.104 | inactive: -0.12 | inactive: -0.097 | inactive: 0.166 | inactive: 0.017
HMG20A (UniProt Q9NP66) | inactive: -0.005 | inactive: 0.125 | inactive: -0.09 | inactive: 0.017 | inactive: -0.281 | inactive: -0.009 | active: 0.429 | inactive: 0.001 | inactive: -0.013 | inactive: 0.006
HSPA4L (UniProt O95757) | inactive: -0.035 | inactive: 0.031 | inactive: 0.049 | inactive: -0.023 | inactive: -0.02 | inactive: 0.036 | inactive: 0.007 | inactive: 0.028 | inactive: -0.004 | inactive: 0.011
HIST2H2BC (UniProt Q6DN03) | inactive: -0.017 | inactive: -0.175 | inactive: -0.456 | inactive: 0.129 | inactive: 0.06 | inactive: 0.049 | inactive: -0.011 | inactive: -0.112 | inactive: 0.194 | inactive: -0.519

Copied from the list.
HS1BP3 (UniProt Q53T59) | log2 fold change [4]: inactive: 0.147
HSP90AA4P (UniProt Q58FG1) | log2 fold change [6]: inactive: -0.12

Single records, as listed above. Order of values: log2 fold change (erlotinib)	log2 fold change [1]	log2 fold change [2]	log2 fold change [3]	log2 fold change [4]	log2 fold change [5]	log2 fold change [6]	log2 fold change [7]	log2 fold change [8]	log2 fold change [9]
HS1BP3 (UniProt Q53T59) is listed as inactive: 0.008	inactive: 0.042	inactive: 0	inactive: -0.073	inactive: 0.147	inactive: -0.008	inactive: -0.032	inactive: -0.03	–	–
ICAM2 (UniProt P13598) is listed as inactive: -0.043	inactive: 0.052	inactive: -0.01	inactive: 0.016	inactive: 0.009	inactive: 0.015	inactive: 0.07	inactive: -0.095	inactive: -0.127	inactive: -0.019
